Source: patent EP3884956A1, “METHODS FOR PRODUCING HEME PEROXIDASES” (Technische Universität Wien, priority 2020, dated 2021)
At least one read-out could not be matched to a standard name with certainty.

Molecular target: T1, wild-type HRP (rHRP, horseradish peroxidase variant C1A, SEQ ID NO: 2) (Armoracia rusticana, UniProt P00433)
T1 sequence (P00433 31-338): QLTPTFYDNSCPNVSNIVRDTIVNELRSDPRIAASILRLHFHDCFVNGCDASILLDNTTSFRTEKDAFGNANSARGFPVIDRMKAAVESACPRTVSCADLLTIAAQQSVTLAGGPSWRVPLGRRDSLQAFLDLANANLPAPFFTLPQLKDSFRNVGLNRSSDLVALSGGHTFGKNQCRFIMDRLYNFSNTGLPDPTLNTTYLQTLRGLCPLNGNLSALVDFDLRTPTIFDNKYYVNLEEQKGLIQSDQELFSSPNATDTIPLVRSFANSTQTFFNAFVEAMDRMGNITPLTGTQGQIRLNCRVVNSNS
Test: Enzyme kinetic parameters, 96-well plate assay
Type: biochemical
Conditions: Table 20; TMB 20 - 550 µM, 1 mM hydrogen peroxide, 50 mM phosphate-citrate buffer pH 5, 30 °C
Experimental: Plant HRP Type VI-A (Cat. No.: P6782) was obtained from Sigma-Aldrich (St. Louis, MO, USA). All HRP variants produced in E. coli consisted of the sequence as set forth in SEQ ID NO: 2 with the indicated mutations unless specified otherwise.
For measurements with 3,3',5,5'-tetramethylbenzidine (TMB) as substrate, the reaction mixture in each well of the 96-well plate contained a saturating hydrogen peroxide concentration of 1 mM and varying TMB concentrations (20 - 550 µM) in 50 mM phosphate-citrate buffer pH 5 in a final volume of 200 µL. Protein sample (5 µL) was mixed with 175 µl TMB-buffer mixture and the reaction was started with 20 µl hydrogen peroxide solution (10 mM). The increase in absorption was followed at 652 nm for 60s at 30 °C in a Tecan Infinite M200 PRO instrument. The kinetic parameters were calculated using Sigma Plot software (Systat Software INC., San Jose, CA, USA) and an extinction coefficient of ε652 = 39 mM^-1 cm^-1 (see Josephy, et al. "The horseradish peroxidase-catalyzed oxidation of 3, 5, 3', 5'-tetramethylbenzidine. Free radical and charge-transfer complex intermediates." Journal of Biological Chemistry 257.7 (1982): 3669-3675).
The increase in absorption was followed at 420 nm for 120 s at 30 °C in a Tecan Infinite M200 PRO instrument. […]

## Cc1cc(-c2cc(C)c(N)c(C)c2)cc(C)c1N [TMB, 3,3',5,5'-tetramethylbenzidine]
  kcat/Km (substrate TMB): 40000 ± 6000 M⁻¹ s⁻¹
